Experimental data published in patent US20250206818A1 (AGENUS, published 2025).
No constants are given. Whether binding was seen depends on the method and setting. Some binding calls cover weakened binding; strength is not graded here.

T1: human LAG-3 (human, UniProt P18627 23-450, limits assumed)
T1 construct: Selections used human LAG-3-Fc, human LAG-3-6His, a 30 aa LAG-3 peptide and/or cells with cynomolgus LAG-3; also called CD223
T1 sequence (looked up): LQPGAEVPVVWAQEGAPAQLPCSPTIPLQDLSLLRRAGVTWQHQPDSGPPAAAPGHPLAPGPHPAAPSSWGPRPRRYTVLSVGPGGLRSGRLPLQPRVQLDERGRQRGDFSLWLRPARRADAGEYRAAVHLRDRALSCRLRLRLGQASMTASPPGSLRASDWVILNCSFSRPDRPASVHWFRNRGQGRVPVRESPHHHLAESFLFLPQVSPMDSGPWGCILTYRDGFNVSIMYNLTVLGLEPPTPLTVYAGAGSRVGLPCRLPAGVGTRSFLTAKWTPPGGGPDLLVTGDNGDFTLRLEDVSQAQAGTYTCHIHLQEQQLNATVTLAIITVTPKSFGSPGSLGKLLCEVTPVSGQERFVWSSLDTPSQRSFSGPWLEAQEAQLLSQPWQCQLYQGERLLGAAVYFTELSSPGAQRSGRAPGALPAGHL

T2: human LAG-3 expressed on cells (human, UniProt P18627 23-525)
T2 construct: whole, on cells; also called CD223
T2 sequence (looked up): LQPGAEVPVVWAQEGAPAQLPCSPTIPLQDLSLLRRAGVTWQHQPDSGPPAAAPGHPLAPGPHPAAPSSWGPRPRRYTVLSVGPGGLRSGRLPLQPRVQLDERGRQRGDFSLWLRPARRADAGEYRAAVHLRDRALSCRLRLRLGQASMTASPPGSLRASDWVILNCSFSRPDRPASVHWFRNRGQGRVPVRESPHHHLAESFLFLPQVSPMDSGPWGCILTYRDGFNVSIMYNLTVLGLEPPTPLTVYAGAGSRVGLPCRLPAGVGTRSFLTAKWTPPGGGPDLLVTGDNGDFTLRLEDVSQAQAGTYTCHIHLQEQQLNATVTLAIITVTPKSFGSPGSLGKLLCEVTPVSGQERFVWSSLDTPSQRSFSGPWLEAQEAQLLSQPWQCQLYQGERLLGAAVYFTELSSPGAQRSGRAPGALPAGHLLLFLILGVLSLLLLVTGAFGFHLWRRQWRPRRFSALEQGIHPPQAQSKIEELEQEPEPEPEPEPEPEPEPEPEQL

B1: P13F01 Fab (Fab, V domains shown)
VH: QVQLQQPGAELVKPGASVELSCTASGFNIRDTYMYWVKQRPEQGLEWIGRIDPANGNTKFDPKFQDRATMTADTSSNTAYLQLSSLTSEDTAVYYCTTYFYRYDVGGFDYWGQGTTLTVS
VL: EIVLTQSPALMAASPGEKVTITCSVSSSISSSNLHWYQQKSGTSPKLWIYGTSNLASGVPVRFSGSGSGTSYSLTISSMEAEDAATYYCQQWSSYPFTFGSGTKLEIK
B2: P14A04 Fab (Fab, V domains shown)
VH: QVQLQQPGAELVKPGASVELSCTASGFNIRDTYMYWVKQRPEQGLEWIGRIDPANGNTKFDPKFQDRATMTADTSSNTAYLQLSSLTSEDTAVYYCTTYFYRYDVGGFDYWGQGTTLTVS
VL: DIVLTQSPALMAASPGEKVTITCSVSSSISSSNLHWFQQKSGTSPKLWIYGTSNLASGVPVRFSGSGSGTSYSLTISSMEAEDAATYYCQQWSSYPFTFGSGTKLEIK
B3: P14C04 Fab (Fab, V domains shown)
VH: QVQLQQPGAELVKPGASVKLSCTASGFNIKDTYMYWVKQRPEQGLDWIGRIDPANGNTHFDPKFQGKATITADTSSNTAYLQLSSLTSEDTAVYYCSTYFYRYDVGGFDYWGQGTTLTVS
VL: ENVLTQSPALMAASPGEKVTITCSVSSSISSSNLHWYQQKSGTSPKLWIYGTSNLASGVPVRFSGSGSGTSYSLTISSMEAEDAATYYCQQWSSYPFTFGSGTKLEIK
B4: P15E06 Fab (Fab, V domains shown)
VH: QVQLQQPGAELVKPGASVELSCTASGFNIRDTYMYWVKQRPEQGLEWIGRIDPANGNTKFDPKFQDRATMTADTSSNTAYLQLSSLTSEDTAVYYCTTYFYRYDVGGFDYWGQGTTLTVS
VL: ENVLTQSPALMAASPGEKVTITCSVSSGISSSNLHWYQQKSGTSPKLWIYGTSNLASGVPVRFSGSGSGTSYSLTISSMEAEDAATYYCQQWSRYPWTFGGGTKLEIK
B5: P15F06 Fab (Fab, V domains shown)
VH: QVQLKQSGAELVKPGASVELSCTASGFNIRDTYMYWVKQRPEQGLEWIGRIDPANGNTKFDPKFQDRATMTADTSSNTAYLQLSSLTSEDTAVYYCTTYFYRYDVGGFDYWGQGTTLTVS
VL: ENVLTQSPALMAASPGEKVTITCSVSSSISSSTLHWFQQKSGTSPKLWIYGTSNLASGVPVRFSGSGSGTSYSLTISSMEAEDAATYYCQQWSSYPWTFGGGTKLEIK

How the values were obtained:
human LAG-3 = biological target: T1, human LAG-3; assay: Fab phage display selection; periplasmic extracts screened by ELISA or flow cytometry
Text: Anti-LAG-3 antibodies were identified by generation and selection of an immunized Fab phage display library. […] Per mouse, a Fab library was then generated by random-primed cDNA using total RNA as a template to amplify variable regions from mouse antibody genes. Heavy and kappa chain amplicons were combined and cloned into phagemid vectors. […] The 30 amino acid human LAG-3 peptide is a biotinylated peptide comprising the amino acid sequence of […] (SEQ ID NO: 199). Periplasmic extracts of selected Fab clones were then screened by ELISA or flow cytometry. Antibody sequencing and off-rate analysis were then performed on anti-LAG-3 Fabs.

[1] = biological target: T2, human LAG-3 expressed on cells; assay: flow cytometry, Fab periplasmic extract on Jurkat cells expressing human LAG-3 (FIGS. 1A-1C)
Description: The anti-LAG-3 Fabs from periplasmic extracts were tested for binding to LAG-3-expressing cells using flow cytometry. Briefly, wild type and human LAG-3-expressing Jurkat cells were plated at 2×10⁵ cells/well in sample buffer (PBS (Gibco, Cat #10010-015)+0.5% FBS (Gibco, Cat #10270-106)) in 96-well U-bottom plates (Sarstedt). 22 μl of anti-LAG-3 Fab periplasmic extract and 83 μl of diluted anti-c-myc antibody (Gentaur, Clone #9E10, Cat #04-cmyc-9E10) were incubated for 30 minutes at room temperature. 100 μl of the periplasmic extract/anti-c-myc mixture was added to cells and then incubated for one hour on ice. Cells were washed three times and then incubated with a goat anti-mouse APC (BD Biosciences, Cat #550826) for 30 minutes on ice. Cells were washed three times and then analyzed with a FACS machine (BD Accuri6).

Binder	binding (human LAG-3)	binding [1]
B1	binds	binds
B2	binds	binds
B3	binds	binds
B4	binds	binds
B5	binds	binds
